Patent US4946964A, “Photographic compounds” (Polaroid Corporation, priority 1987, dated 1990)

Assay: sensitometry of diffusion transfer film unit, Example XX (compound in dye layer)
Text: The experiment of Example XIX was repeated with the exception that compound V was incorporated in the dye layer at the same coverage and was not present in the silver halide emulsion layer.

For CC(CSc1nnnn1-c1ccc(O)cc1)=NO [V], the Dmax (45° F.) was 2.43, the Dmin (45° F.) was 0.24 and the Speed (45° F.) was 1.09. For the same compound, the Dmax (75° F.) was 2.45, the Dmin (75° F.) was 0.19 and the Speed (75° F.) was 1.18. It also gave a Dmax (105° F.) of 2.12, a Dmin (105° F.) of 0.15 and a Speed (105° F.) of 1.31.
